Results are given in words; binding and its absence hold for the method and conditions named. Binding seen in cells or lysates may run through a third protein. These calls come from enrichment with a bait or labelling near it, and not all partners need be listed. For part of these data: A no says only that the protein was not detected with the bait. For part of these data: Where a sequence is shown, tags or fusion partners need not be part of it.
What was measured:
Test in all cases: proximity labelling; BioID in living stable HEK-293 cells, 50 µM biotin for 16 hr; lysis in RIPA buffer; streptavidin beads; MS/MS; hits >3-fold enriched over a BioID alone control
NINL-BioID (human) = NINL-BioID (human) (UniProt Q9Y2I6)
[1] = biological target: NINL tagged with BioID (NINL datasets; N- or C-terminal fusion not told) (human) (UniProt Q9Y2I6)
[2] = biological target: NIN tagged with BioID (NIN datasets; N- or C-terminal fusion not told) (human) (UniProt Q8N4C6)
[3] = biological target: T1, BICD1 tagged with BioID (BICD1 datasets; N- or C-terminal fusion not told) (human) (UniProt Q96G01)
T1 sequence: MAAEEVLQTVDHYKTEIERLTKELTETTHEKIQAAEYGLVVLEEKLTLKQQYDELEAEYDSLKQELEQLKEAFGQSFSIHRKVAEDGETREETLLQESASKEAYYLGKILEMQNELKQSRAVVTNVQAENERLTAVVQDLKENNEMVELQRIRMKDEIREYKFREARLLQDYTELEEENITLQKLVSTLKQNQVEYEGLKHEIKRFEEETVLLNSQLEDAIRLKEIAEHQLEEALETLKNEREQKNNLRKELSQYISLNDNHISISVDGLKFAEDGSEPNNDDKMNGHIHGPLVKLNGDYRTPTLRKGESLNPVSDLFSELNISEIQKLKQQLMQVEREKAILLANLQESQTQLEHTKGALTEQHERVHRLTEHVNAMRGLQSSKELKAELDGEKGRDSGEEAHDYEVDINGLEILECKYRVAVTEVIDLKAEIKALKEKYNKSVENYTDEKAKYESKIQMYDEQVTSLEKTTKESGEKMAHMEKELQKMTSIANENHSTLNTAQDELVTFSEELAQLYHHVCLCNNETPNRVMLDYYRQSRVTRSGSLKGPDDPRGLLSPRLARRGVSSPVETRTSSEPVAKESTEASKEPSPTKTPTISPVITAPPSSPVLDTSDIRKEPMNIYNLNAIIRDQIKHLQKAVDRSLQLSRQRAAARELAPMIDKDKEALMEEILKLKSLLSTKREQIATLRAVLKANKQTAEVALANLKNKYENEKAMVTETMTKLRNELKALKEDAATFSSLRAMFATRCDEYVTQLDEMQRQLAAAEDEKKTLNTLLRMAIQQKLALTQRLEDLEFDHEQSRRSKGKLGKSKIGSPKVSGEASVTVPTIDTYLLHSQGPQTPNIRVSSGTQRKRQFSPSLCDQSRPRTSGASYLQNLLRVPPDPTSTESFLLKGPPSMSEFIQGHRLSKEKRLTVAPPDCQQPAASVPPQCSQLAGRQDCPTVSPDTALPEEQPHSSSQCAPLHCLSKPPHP

Chains of the proteins cited; added tags and fusions are not shown.
UniProt Q9Y2I6: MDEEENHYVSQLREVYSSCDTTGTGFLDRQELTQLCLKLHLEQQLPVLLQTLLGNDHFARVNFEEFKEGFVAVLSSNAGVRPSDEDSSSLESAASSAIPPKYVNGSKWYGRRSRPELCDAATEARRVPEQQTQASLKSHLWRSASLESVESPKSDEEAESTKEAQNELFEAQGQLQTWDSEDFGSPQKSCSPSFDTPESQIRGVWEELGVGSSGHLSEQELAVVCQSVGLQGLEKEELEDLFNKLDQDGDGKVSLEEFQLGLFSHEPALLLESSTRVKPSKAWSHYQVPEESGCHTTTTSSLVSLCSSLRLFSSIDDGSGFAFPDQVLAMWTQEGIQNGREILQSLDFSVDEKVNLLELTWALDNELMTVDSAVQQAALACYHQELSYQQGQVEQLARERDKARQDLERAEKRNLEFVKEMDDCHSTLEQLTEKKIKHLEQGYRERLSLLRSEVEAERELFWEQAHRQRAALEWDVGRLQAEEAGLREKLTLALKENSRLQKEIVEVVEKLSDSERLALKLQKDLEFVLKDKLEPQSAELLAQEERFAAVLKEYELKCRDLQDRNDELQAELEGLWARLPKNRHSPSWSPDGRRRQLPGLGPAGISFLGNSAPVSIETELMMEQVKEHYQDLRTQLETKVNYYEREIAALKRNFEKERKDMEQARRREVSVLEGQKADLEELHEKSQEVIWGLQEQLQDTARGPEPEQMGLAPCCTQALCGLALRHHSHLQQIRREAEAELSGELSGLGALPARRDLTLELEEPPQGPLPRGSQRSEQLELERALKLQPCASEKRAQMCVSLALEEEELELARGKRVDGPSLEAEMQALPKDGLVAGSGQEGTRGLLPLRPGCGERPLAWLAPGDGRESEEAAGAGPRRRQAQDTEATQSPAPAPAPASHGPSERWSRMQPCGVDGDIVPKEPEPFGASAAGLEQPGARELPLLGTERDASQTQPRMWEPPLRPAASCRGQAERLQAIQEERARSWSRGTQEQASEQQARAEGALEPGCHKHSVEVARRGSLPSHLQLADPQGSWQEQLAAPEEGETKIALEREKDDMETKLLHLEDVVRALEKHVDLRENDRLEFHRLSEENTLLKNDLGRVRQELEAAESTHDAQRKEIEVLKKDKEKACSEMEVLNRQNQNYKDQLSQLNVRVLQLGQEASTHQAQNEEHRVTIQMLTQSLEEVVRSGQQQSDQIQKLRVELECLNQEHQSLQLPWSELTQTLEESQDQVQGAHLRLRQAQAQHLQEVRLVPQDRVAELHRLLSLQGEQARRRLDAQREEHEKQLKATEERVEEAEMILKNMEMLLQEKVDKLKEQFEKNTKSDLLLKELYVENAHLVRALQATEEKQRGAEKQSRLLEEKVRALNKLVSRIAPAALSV
UniProt Q8N4C6: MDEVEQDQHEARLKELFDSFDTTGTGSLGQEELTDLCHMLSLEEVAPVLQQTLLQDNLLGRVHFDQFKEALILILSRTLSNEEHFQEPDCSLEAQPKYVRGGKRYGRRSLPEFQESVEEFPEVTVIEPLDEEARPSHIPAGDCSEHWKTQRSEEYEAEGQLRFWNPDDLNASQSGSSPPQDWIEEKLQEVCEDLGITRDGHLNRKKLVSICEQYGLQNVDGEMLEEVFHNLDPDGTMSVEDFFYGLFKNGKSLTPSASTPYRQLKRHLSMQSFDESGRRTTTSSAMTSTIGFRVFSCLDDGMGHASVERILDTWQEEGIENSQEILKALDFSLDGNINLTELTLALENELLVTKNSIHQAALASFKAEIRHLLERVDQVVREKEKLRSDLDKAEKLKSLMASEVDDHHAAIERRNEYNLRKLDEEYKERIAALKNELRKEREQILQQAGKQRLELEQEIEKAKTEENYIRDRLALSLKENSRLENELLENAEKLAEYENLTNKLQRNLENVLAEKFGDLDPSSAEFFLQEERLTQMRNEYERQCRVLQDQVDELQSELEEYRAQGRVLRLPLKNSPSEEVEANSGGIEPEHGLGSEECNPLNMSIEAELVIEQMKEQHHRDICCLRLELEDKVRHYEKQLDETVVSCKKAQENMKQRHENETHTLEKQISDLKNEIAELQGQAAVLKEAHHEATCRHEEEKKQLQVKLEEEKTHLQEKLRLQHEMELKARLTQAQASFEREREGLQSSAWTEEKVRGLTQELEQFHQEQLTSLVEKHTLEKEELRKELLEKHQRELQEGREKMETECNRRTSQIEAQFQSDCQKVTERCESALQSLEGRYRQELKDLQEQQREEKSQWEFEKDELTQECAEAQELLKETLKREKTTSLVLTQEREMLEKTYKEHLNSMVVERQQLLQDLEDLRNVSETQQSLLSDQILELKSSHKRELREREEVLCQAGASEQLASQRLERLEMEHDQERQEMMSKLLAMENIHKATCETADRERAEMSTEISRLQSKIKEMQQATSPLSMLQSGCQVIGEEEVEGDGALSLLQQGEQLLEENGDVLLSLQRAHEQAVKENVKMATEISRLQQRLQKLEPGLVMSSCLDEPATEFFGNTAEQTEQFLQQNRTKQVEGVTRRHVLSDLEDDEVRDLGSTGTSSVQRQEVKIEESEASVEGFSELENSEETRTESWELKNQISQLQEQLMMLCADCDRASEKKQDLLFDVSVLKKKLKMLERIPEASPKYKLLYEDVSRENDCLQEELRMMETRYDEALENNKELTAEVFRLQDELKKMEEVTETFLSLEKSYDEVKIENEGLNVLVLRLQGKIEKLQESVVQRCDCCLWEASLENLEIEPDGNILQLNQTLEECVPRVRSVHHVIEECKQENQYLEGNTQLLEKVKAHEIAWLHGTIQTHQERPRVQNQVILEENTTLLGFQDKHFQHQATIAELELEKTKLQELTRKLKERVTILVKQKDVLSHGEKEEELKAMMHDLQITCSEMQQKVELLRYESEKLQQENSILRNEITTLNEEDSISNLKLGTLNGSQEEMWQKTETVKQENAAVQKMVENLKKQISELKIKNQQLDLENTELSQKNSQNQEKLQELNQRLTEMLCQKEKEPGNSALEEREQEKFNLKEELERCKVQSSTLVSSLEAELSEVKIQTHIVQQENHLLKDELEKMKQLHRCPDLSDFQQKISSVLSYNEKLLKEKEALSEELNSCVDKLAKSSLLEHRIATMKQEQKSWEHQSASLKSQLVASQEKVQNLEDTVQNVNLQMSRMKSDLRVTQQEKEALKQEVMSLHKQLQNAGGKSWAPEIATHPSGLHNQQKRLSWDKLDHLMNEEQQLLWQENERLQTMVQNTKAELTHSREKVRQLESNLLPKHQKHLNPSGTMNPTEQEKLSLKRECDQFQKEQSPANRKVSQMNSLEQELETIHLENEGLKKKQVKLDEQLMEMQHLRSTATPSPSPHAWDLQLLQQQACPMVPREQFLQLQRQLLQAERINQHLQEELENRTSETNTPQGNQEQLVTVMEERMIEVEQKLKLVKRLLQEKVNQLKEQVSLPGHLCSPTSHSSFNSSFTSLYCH
UniProt Q7RTP6: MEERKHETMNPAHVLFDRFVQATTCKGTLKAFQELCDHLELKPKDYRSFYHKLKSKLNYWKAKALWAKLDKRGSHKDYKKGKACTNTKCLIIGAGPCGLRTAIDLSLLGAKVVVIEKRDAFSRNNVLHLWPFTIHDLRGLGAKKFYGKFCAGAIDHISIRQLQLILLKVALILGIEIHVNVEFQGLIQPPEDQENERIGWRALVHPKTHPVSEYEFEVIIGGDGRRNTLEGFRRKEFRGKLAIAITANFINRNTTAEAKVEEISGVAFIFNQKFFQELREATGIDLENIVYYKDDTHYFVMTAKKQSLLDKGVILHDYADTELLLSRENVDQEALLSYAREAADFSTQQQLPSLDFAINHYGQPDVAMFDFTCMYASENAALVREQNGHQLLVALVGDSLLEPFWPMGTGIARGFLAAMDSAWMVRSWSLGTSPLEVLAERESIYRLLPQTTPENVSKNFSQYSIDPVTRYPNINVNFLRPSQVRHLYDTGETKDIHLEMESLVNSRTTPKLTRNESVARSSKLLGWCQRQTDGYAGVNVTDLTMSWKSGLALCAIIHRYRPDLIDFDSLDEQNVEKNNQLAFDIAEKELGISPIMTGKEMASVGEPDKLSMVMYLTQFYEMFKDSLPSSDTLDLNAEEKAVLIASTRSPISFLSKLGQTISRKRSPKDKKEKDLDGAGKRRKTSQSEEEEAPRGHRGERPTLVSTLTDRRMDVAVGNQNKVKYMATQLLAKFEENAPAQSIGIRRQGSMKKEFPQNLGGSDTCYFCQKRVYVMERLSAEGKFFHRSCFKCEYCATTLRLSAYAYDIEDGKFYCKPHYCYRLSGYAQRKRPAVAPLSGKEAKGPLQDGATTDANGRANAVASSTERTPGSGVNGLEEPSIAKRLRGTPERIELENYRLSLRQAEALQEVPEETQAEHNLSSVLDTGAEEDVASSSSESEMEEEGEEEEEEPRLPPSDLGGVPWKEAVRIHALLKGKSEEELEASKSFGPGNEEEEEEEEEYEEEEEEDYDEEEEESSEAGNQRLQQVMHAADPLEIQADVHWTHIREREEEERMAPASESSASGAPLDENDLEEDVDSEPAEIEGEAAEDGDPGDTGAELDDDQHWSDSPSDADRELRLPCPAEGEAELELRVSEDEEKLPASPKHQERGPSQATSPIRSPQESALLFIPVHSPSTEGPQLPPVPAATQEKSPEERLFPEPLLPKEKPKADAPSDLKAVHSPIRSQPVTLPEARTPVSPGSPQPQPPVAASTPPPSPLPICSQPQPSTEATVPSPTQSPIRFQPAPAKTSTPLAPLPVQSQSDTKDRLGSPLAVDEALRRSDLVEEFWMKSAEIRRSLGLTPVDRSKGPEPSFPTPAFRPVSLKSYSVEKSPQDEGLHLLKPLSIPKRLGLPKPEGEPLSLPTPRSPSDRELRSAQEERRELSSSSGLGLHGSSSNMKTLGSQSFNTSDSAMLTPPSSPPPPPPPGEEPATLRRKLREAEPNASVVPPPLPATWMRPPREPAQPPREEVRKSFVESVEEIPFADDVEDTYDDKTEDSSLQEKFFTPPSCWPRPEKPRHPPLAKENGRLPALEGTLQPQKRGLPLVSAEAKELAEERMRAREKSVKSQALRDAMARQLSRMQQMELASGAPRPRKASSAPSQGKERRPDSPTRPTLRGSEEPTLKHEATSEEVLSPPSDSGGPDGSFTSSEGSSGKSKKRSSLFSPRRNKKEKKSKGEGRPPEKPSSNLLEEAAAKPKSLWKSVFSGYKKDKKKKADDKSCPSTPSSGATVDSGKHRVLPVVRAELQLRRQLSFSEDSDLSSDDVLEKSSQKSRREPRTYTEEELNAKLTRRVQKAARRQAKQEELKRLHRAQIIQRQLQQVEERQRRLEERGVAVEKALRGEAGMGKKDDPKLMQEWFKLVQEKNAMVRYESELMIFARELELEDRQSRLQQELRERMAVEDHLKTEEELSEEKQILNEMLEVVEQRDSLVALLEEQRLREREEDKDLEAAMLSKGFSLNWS
UniProt Q8TD16: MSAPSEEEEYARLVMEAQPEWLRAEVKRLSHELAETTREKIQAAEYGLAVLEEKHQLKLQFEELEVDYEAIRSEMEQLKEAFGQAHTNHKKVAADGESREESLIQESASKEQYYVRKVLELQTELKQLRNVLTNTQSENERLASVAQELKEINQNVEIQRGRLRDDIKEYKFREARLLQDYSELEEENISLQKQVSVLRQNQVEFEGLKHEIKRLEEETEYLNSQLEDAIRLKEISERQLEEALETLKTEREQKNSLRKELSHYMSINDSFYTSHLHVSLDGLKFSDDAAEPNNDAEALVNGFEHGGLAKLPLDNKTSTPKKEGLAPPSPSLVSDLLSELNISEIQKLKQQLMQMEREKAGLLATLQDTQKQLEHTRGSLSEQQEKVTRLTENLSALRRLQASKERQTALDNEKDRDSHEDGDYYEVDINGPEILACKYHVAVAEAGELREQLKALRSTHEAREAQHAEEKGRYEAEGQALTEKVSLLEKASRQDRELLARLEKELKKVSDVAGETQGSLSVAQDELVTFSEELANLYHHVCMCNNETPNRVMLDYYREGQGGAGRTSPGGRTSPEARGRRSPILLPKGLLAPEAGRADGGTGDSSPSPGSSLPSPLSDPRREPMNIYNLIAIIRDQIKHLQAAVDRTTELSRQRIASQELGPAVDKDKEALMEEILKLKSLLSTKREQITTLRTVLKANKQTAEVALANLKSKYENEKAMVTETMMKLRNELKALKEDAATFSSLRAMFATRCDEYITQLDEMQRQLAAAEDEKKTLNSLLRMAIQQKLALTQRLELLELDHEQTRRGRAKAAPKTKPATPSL

[4] = biological target: T2, HOOK3-BioID-3×FLAG (human) (UniProt Q86VS8)
T2 sequence: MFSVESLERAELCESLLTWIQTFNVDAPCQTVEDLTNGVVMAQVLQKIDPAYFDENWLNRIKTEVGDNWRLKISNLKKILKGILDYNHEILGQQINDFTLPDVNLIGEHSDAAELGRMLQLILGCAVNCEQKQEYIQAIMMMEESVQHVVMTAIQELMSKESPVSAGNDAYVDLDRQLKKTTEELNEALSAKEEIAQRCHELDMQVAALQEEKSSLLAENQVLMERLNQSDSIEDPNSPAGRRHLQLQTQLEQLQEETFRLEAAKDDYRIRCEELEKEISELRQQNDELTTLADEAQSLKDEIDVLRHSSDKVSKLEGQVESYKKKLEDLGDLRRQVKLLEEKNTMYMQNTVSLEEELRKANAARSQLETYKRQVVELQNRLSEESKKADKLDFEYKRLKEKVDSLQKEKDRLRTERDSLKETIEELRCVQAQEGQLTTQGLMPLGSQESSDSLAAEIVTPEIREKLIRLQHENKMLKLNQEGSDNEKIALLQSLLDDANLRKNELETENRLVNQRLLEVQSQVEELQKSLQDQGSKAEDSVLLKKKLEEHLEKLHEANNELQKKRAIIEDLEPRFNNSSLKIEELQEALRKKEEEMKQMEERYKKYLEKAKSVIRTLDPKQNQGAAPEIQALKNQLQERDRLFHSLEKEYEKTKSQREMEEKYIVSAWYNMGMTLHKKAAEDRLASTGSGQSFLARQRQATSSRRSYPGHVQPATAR

Substance: MICAL3 (from UniProt Q7RTP6 1-2002)
- binding (NINL-BioID (human)): binds

Substance: ninein (from UniProt Q8N4C6 1-2090)
- binding [1]: no binding

Substance: ninein-like (from UniProt Q9Y2I6 1-1382)
- binding [2]: no binding

Substance: BICD2 (from UniProt Q8TD16 1-824)
- binding [3]: binds

Substance: KLC2 (from UniProt Q9H0B6 1-622)
- binding [4]: binds

Substance: KLC4 (from UniProt Q9NSK0 1-619)
- binding [4]: binds
